Consider 1 molecule from patent US20210252161A1.

This assay deals with TPP-2618, TweakR-ECD-34-68-hIgGFc-His-R56A (human). Description: ELISA, IgG coated at 1 µg/ml, 8-fold diluted HEK293 supernatant with the TWEAKR(34-68)-Fc mutein, anti-HIS-HRP, Amplex Red.

No constants are given. Whether binding was seen depends on the method and setting. Some binding calls cover weakened binding; strength is not graded here.

B1: TPP-2090 (antibody, human IgG1, kappa, V domains shown)
VH: EVQLLESGGGLVQPGGSLRLSCAASGFTFSPYPMIWVRQAPGKGLEWVSYISPSGGSTHYADSVKGRFTISRDNSKNTLYLQMNSLRAEDTAVYYCARGGDTYFDYFDYWGQGTLVTVSS
VL: DIQMTQSPSSLSASVGDRVTITCRASQSISGYLNWYQQKPGKAPKLLIYQASSLQSGVPSRFSGSGSGTDFTLTISSLQPEDFATYYCQQSYTSPFITFGQGTKVEIKR
For the molecule B1, the binding result is given as “binds”.
